Laboratory results published in doi:10.1101/2020.09.03.282103.
Results are given in words; binding and its absence hold for the method and conditions named. In cells and extracts the contact can be indirect. A yes stands for co-enrichment or nearness to the bait. Other partners may have been found.

Sequences of proteins named here, by UniProt entry; tags and fusion partners are left off. A change or cut given only in a name is not applied to a line headed by its entry. Residues count along the entry.
UniProt P0DTC8, 16-121: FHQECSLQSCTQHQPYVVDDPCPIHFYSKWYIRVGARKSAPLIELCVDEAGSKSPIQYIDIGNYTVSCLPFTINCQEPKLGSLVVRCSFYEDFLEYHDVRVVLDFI
UniProt Q13283, whole entry, stated change not applied: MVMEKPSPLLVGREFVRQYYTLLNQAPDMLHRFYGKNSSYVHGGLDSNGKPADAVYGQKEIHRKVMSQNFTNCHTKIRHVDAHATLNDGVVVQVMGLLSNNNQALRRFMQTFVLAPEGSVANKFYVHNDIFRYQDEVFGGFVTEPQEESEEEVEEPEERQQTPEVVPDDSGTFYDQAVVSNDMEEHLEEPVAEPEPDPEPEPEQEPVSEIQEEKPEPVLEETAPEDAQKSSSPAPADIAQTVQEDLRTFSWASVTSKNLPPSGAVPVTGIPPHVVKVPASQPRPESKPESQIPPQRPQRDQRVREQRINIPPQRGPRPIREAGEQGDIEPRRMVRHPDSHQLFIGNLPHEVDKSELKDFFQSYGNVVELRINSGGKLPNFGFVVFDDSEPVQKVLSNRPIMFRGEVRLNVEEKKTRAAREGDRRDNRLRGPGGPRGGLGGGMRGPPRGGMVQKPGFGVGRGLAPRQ

Columns and labels:
Assay in all cases: proximity labelling
NSP6 (SARS-CoV-2) = NSP6 (SARS-CoV-2) (UniProt P0DTD1)
ORF8_Ct (SARS-CoV-2) = ORF8_Ct (SARS-CoV-2) (UniProt P0DTC8)
NSP9 (SARS-CoV-2) = NSP9 (SARS-CoV-2) (UniProt P0DTD1)
[1] = biological target: NSP3_Nt wild type (SARS-CoV-2) (UniProt P0DTD1)
NSP8 (SARS-CoV-2) = NSP8 (SARS-CoV-2) (UniProt P0DTD1)
NSP16 (SARS-CoV-2) = NSP16 (SARS-CoV-2) (UniProt P0DTD1)
NSP7 (SARS-CoV-2) = NSP7 (SARS-CoV-2) (UniProt P0DTD1)
[2] = biological target: G3BP1 (miniTurbo host bait) (UniProt Q13283)

In the case of ARF1 (from UniProt P84077 1-181), the binding (NSP6 (SARS-CoV-2)) is reported as “binds”.

“CALR (calreticulin) (from UniProt P27797 18-417)” was tested, and the binding (ORF8_Ct (SARS-CoV-2)) was “binds”.

EIF4ENIF1 (from UniProt Q9NRA8 1-985) was tested, and the binding (NSP9 (SARS-CoV-2)) was “binds”.

With FXR2 (from UniProt P51116 1-673) the binding [1] was “binds” and the binding (NSP9 (SARS-CoV-2)) was “binds”.

HECTD1 (from UniProt Q9ULT8 1-2610) was tested, and the binding (NSP8 (SARS-CoV-2)) was “binds”.

HERC1 (from UniProt Q15751 1-4861) was tested, and the binding (NSP8 (SARS-CoV-2)) was “binds”.

For HLA-A (from UniProt P04439 25-365), the binding (ORF8_Ct (SARS-CoV-2)) was “binds”.

HLA-B (from UniProt P01889 25-362) was tested, and the binding (ORF8_Ct (SARS-CoV-2)) was “binds”.

In the case of HLA-C (from UniProt P10321 25-366), the binding (ORF8_Ct (SARS-CoV-2)) is reported as “binds”.

With LSM14A (from UniProt Q8ND56 1-463) the binding (NSP9 (SARS-CoV-2)) was “binds”.

With LSM14B (from UniProt Q9BX40 1-385) the binding (NSP9 (SARS-CoV-2)) was “binds”.

With MEOIC (from UniProt A2RUB1 1-952) the binding (NSP16 (SARS-CoV-2)) was “binds”.

MYOF (from UniProt Q9NZM1 1-2061) was tested, and the binding (NSP6 (SARS-CoV-2)) was “binds”.

In the case of “NPEPPS (from UniProt P55786 1-919) (enzyme)”, the binding (NSP7 (SARS-CoV-2)) is reported as “binds”.

For PSMD2 (from UniProt Q13200 1-908), the binding (NSP8 (SARS-CoV-2)) was “binds”.

In the case of “UBA1 (from UniProt P22314 1-1058) (enzyme)”, the binding (NSP8 (SARS-CoV-2)) is reported as “binds”.

UBAP2L (from UniProt Q14157 1-1087) was tested, and the binding [2] was “binds”.
